The text below walks through data of patent US20210070872A1 (AGENUS, published 2021).

Results are given in words; binding and its absence hold for the method and conditions named. Some entries that bind do so weakly or less than the wild type.

Assay [1] deals with T1, purified recombinant human GITR protein (Example 1) (human) (UniProt Q9Y5U5).
T1 sequence: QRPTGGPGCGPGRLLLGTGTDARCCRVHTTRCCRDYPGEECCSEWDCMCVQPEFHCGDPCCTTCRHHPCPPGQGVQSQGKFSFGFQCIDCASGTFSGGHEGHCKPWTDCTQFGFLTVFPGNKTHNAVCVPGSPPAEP
In words: Western blot, non-reducing.

Assay [2] addresses T1, purified recombinant human GITR protein (Example 1) (human). The assay can be described thus: Western blot, non-reducing (FIG. 1). (Immunoblotting shows a protein as a band on a membrane.)
Assay [3] deals with T2, biotinylated GITR (human, UniProt Q9Y5U5 26-161, limits assumed, biotinylated (sites not given)).
T2 construct: also called GITR-bio; Biotin-GITR
T2 sequence: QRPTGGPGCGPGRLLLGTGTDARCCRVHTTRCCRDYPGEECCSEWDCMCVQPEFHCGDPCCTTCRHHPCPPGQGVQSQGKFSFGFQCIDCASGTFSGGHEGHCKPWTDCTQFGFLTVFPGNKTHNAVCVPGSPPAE
The assay can be described thus: FACS competition; GITR-bio pre-incubated with soluble antibody.

B1: mAb 231-1039-45 (murine) (antibody, mouse IgG1, V domains shown)
VH: QVQLLQSGTELVRPGVSVKISCKGSGYTFTDYAMYWVKQSHAKSLEWIGVIRTYSGDVTYNQKFKDKATMTVDKSSSIAYMELARLSSEDSAIYYCAKSGTVRGFAYWGQGTLVTVSS
VL: DIVMTQSPSSLTVTAGEKVIMSCKSSQSLLNSGNQKNYLTWYQQKPGQPPKLLIYWASTRESGVPDRFTGSGSGTDFTLTISSVQAEDLAVYHCQNDYSYPYTFGGGTKLEIK
notes: Mouse IgG1 from hybridoma
B1: in assay [1], the binding entry was “binds”.

B2: mAb 231-1042-7 (murine) (antibody, mouse IgG1, V domains shown)
VH: QVQLLQSGTELVRPGVSVKISCKGSGYTFTDYAMYWVKQSHAKSLEWIGVIRTYSGDVTYNQKFKDKATMTVDKSSSIAYMELARLSSEDSAIYYCAKSGTVRGFAYWGQGTLVTVSS
VL: DIVMTQSPSSLTVTAGEKVIMSCKSSQSLLNSGNQKNYLTWYQQKPGQPPKLLIYWASTRESGVPDRFTGSGSGTDFTLTISSVQAEDLAVYHCQNDYSYPYTFGGGTKLEIK
notes: Mouse IgG1 from hybridoma
Consider B2, for which, in assay [1], the binding entry is reported as “binds”.

B3: mAb 231-1333-21 (murine) (antibody, mouse IgG1, V domains shown)
VH: QVQLLQSGTELVRPGVSVKISCKGSGYTFTDYAMYWVKQSHAKSLEWIGVIRTYSGDVTYNQKFKDKATMTVDKSSSIAYMELARLSSEDSAIYYCAKSGTVRGFAYWGQGTLVTVSS
VL: DIVMTQSPSSLTVTAGEKVIMSCKSSQSLLNSGNQKNYLTWYQQKPGQPPKLLIYWASTRESGVPDRFTGSGSGTDFTLTISSVQAEDLAVYHCQNDYSYPYTFGGGTKLEIK
notes: Mouse IgG1 from hybridoma
For B3, the binding result in assay [1] is “binds”.

B4: mAb 231-32-15 (murine) (antibody, mouse IgG1, V domains shown)
VH: QVQLLQSGTELVRPGVSVKISCKGSGYTFTDYAMYWVKQSHAKSLEWIGVIRTYSGDVTYNQKFKDKATMTVDKSSSIAYMELARLSSEDSAIYYCAKSGTVRGFAYWGQGTLVTVSS
VL: DIVMTQSPSSLTVTAGEKVIMSCKSSQSLLNSGNQKNYLTWYQQKPGQPPKLLIYWASTRESGVPDRFTGSGSGTDFTLTISSVQAEDLAVYHCQNDYSYPYTFGGGTKLEIK
notes: Mouse IgG1 from hybridoma; also called antibody 32-15
B4: the binding entry in assay [2] and in assay [1] was “binds” each time.

B5: Hum231#1 (antibody, V domains shown)
VH: QVQLVQSGAEVKKPGASVKVSCKGSGYTFTDYAMYWVRQAPGQGLEWIGVIRTYSGDVTYNQKFKDRATMTVDKSISTAYMELSRLRSDDTAVYYCAKSGTVRGFAYWGQGTLVTVSS
VL: DIVMTQSPPTLSLSPGERVTLSCKSSQSLLNSGNQKNYLTWYQQKPGQAPRLLIYWASTRESGIPARFSGSGSGTDFTLTISSLQPEDFAVYHCQNDYSYPYTFGQGTKLEIK
notes: Variable regions cloned with IGHG1 (also IGHG4 and Fab vectors exist) and IGKC constant regions; format in each assay not always stated; also called humanized variant Hum231#1 (IGHV1-2*02 and IGK3-7*02)
As for B5, the binding entry in assay [3] is “binds”.

B6: Hum231#2 (antibody, human IgG1, V domains shown)
VH: QVQLVQSGAEVKKPGASVKVSCKGSGYTFTDYAMYWVRQAPGQGLEWIGVIRTYSGDVTYNQKFKDRATMTVDKSISTAYMELSRLRSDDTAVYYCAKSGTVRGFAYWGQGTLVTVSS
VL: DIVMTQSPDSLAVSLGERATINCKSSQSLLNSGNQKNYLTWYQQKPGQPPKLLIYWASTRESGVPDRFSGSGSGTDFTLTISSLQAEDVAVYHCQNDYSYPYTFGQGTKLEIKR
notes: Human IgG1 with T109S (Kabat) in the light chain constant domain; also called humanized variant Hum231#2 (IGHV1-2*02 and IGK4-1*01)
For B6, in assay [3], the binding result is given as “binds”.
